Measured values as given in publication PMC7308332.
No constants are given. Whether binding was seen depends on the method and setting. For some of these results: In cells and extracts the contact can be indirect. Some results given as binding are weak or reduced against the parent protein; the word gives no strength. Sequences can lack the tags named with a protein.

T1: LexA-Cdc24 (two-hybrid bait) (S. cerevisiae) (UniProt P11433)
T1 sequence: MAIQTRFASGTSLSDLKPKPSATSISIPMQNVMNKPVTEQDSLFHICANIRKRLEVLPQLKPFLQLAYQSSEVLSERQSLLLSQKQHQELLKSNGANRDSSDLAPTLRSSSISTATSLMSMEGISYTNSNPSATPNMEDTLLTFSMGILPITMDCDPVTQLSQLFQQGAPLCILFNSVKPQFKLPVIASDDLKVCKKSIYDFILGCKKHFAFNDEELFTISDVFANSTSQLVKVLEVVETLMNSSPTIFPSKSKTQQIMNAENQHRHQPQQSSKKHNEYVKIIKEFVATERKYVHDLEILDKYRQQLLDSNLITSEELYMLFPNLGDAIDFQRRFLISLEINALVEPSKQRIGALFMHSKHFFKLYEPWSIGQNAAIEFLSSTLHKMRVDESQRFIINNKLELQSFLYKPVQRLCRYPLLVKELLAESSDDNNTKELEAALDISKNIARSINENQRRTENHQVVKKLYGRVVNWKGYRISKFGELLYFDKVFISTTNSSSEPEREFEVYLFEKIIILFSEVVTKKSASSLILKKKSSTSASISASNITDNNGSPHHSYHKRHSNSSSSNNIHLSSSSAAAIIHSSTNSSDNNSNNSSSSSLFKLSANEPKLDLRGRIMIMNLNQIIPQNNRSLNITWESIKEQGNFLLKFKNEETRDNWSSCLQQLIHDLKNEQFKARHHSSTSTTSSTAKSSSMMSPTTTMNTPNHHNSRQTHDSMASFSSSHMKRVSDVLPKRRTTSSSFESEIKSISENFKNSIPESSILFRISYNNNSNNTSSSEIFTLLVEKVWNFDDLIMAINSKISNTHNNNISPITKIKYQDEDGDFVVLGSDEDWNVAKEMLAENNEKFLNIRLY

T2: Cdc24-GFP (S. cerevisiae) (UniProt P11433)
T2 sequence: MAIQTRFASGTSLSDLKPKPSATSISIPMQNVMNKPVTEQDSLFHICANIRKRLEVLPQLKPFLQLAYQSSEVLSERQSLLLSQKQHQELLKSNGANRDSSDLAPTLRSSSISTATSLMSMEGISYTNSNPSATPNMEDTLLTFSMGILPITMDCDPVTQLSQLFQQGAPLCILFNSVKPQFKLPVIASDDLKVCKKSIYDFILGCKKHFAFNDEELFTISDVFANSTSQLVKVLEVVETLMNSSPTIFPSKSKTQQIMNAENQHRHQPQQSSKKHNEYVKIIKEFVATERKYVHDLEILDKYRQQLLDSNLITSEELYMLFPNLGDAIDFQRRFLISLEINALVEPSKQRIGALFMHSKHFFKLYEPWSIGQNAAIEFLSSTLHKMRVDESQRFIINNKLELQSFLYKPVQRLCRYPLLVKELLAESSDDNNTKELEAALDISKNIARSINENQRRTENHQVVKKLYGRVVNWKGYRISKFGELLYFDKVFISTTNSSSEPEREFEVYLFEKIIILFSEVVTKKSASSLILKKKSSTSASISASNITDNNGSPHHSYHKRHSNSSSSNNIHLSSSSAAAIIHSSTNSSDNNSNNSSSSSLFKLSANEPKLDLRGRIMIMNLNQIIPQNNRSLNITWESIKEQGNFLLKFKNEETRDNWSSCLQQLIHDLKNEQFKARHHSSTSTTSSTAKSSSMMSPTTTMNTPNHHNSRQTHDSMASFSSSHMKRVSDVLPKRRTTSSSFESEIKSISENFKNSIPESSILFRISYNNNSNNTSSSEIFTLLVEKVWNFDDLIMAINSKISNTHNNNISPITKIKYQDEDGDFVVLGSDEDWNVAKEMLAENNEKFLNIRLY


Columns and labels:
[1] = biological target: T1, LexA-Cdc24 (two-hybrid bait) (S. cerevisiae); assay: two-hybrid; LexA bait (pEG202) and B42AD-HA preys (pJG4-5) in EGY48 with LexAop-LacZ reporter (pSH18-34); patches on raffinose/galactose X-Gal plates, overnight at 28 °C; confirmed by a liquid β-galactosidase assay
[2] = biological target: T2, Cdc24-GFP (S. cerevisiae); assay: co-IP; Cdc24-GFP recovered with GFP-TRAP_MA beads (1 h, 4 °C) from crude extracts of nocodazole-arrested and logarithmically growing cells; IP-buffer 50 mM Tris pH 7.5, 150 mM NaCl, 1% NP-40; immunoblot with antibodies against GFP or Ras2

binding [1]	binding [2]	Binder
binds		B42AD-HA-Ras2 wild type (two-hybrid prey) (protein, UniProt P01120 1-322) MPLNKSNIREYKLVVVGGGGVGKSALTIQLTQSHFVDEYDPTIEDSYRKQVVIDDEVSILDILDTAGQEEYSAMREQYMRNGEGFLLVYSITSKSSLDELMTYYQQILRVKDTDYVPIVVVGNKSDLENEKQVSYQDGLNMAKQMNAPFLETSAKQAINVEEAFYTLARLVRDEGGKYNKTLTENDNSKQTSQDTKGSGANSVPRNSGGHRKMSNAANGKNVNSSTTVVNARNASIESKTGLAGNQATNGKTQTDRTNIDNSTGQAGQANAQSANTVNNRVNNNSKAGQVSNAKQARKQQAAPGGNTSEASKSGSGGCCIIS
	binds	endogenous Ras2 (protein, UniProt P01120 1-322) MPLNKSNIREYKLVVVGGGGVGKSALTIQLTQSHFVDEYDPTIEDSYRKQVVIDDEVSILDILDTAGQEEYSAMREQYMRNGEGFLLVYSITSKSSLDELMTYYQQILRVKDTDYVPIVVVGNKSDLENEKQVSYQDGLNMAKQMNAPFLETSAKQAINVEEAFYTLARLVRDEGGKYNKTLTENDNSKQTSQDTKGSGANSVPRNSGGHRKMSNAANGKNVNSSTTVVNARNASIESKTGLAGNQATNGKTQTDRTNIDNSTGQAGQANAQSANTVNNRVNNNSKAGQVSNAKQARKQQAAPGGNTSEASKSGSGGCCIIS
no binding		B42AD-HA-Ras2-S24N, dominant negative (two-hybrid prey) (protein, UniProt P01120 1-322) MPLNKSNIREYKLVVVGGGGVGKNALTIQLTQSHFVDEYDPTIEDSYRKQVVIDDEVSILDILDTAGQEEYSAMREQYMRNGEGFLLVYSITSKSSLDELMTYYQQILRVKDTDYVPIVVVGNKSDLENEKQVSYQDGLNMAKQMNAPFLETSAKQAINVEEAFYTLARLVRDEGGKYNKTLTENDNSKQTSQDTKGSGANSVPRNSGGHRKMSNAANGKNVNSSTTVVNARNASIESKTGLAGNQATNGKTQTDRTNIDNSTGQAGQANAQSANTVNNRVNNNSKAGQVSNAKQARKQQAAPGGNTSEASKSGSGGCCIIS
binds		B42AD-HA-Ras2-G19V, constitutively active (two-hybrid prey) (protein, UniProt P01120 1-322) MPLNKSNIREYKLVVVGGVGVGKSALTIQLTQSHFVDEYDPTIEDSYRKQVVIDDEVSILDILDTAGQEEYSAMREQYMRNGEGFLLVYSITSKSSLDELMTYYQQILRVKDTDYVPIVVVGNKSDLENEKQVSYQDGLNMAKQMNAPFLETSAKQAINVEEAFYTLARLVRDEGGKYNKTLTENDNSKQTSQDTKGSGANSVPRNSGGHRKMSNAANGKNVNSSTTVVNARNASIESKTGLAGNQATNGKTQTDRTNIDNSTGQAGQANAQSANTVNNRVNNNSKAGQVSNAKQARKQQAAPGGNTSEASKSGSGGCCIIS
